Experiment [1] deals with cynomologous monkey alpha4beta7 (cynomologous monkey). The experiment in a line: free-site staining with PE-27G8 on naive T cells of treated cynomolgus monkeys.
Experiment [2] has the same target. Description: receptor saturation on T cells of dosed cynomolgus monkeys, flow cytometry. Background: Flow cytometry measures light scatter and fluorescence of single cells or particles in a stream.
For experiment [3] the target is unchanged. Description: flow cytometry on T cells of cynomolgus monkeys.

These are yes or no findings as the source states them, for the method shown. A result given as binding can be weak or reduced; the word gives no strength.

B1: 17C8 (antibody, V domains shown)
VH: QVQLVESGGGLVKPGGSLRLSCAASGFTFSDYYMSWIRQAPGKGLEWLSYISNSGSAMYYADSVKGRFTISRDNARNSLYLQMNSLRAEDTAVYYCAREYSSGWFFFESWGQGTLVTVSS
VL: EIVMTQSPATLSVSPGERATLSCRASQSVSSNLVWYQQKPGQAPRLLIYGASTRATGIPARFSGSGSGTDFTLTISSLQSEDFAVYYCQQYDDWPPLTFGGGTTVEIK
notes: Fully human monoclonal from XenoMouse (human IgG2 or IgG4); kappa light chain; also called 17C8K; 17C8H
Regarding B1, the binding entry in experiment [1] and in experiment [2] was “binds” each time.

B2: 27G8 (antibody, V domains shown)
VH: EVQLVESGGGLVQPGGSLRLSCAASGFTFSSYWMSWVRQASGKGLEWVANIKQDGSEKYYVDSVKGRFTISRDNAKNSLYLQMNSLRAEDTAVYYCAREGGYDWNYADYYGMDVWGQGTTVTVSS
VL: QSVLTQPPSVSEAPRQRVTISCSGSNSNIGNNPVNWYQLFPGRAPKLLIYHDDLLPSGVSDRFSGSRSGTSASLAISGLQSEDETDYYCTAWDDSLNGWVFGGGTKLTVL
notes: Fully human monoclonal from XenoMouse (human IgG2 or IgG4); lambda light chain; PE-conjugated in the cynomolgus study; also called 27G8L; 27G8H
Turning to B2, the binding result in experiment [3] is recorded as “binds”.

B3: 18A11 (antibody, V domains shown)
VH: QVQLVQSGAEVKKPGASVKVSCKVSGYTLSDLSIHWVRQAPGKGLEWMGGFDPQDGETIYAQKFQGRVTMTEDTSTDTAYMELSSLKSEDTAVYYCATGSSSSWFDPWGQGTLVTVSS
VL: DIQMTQSPSSVSASVGDRVTITCRASQGISSWLAWYQQKPGKAPKLLIYGASNLESGVPSRFSGSGSGTDFTLTISSLQPEDFANYYCQQANSFPWTFGQGTKVEIK
notes: Fully human monoclonal from XenoMouse (human IgG2 or IgG4); kappa light chain; also called 18A11K; 18A11H
With B3, the binding entry in experiment [1] and in experiment [2] was “binds” throughout.

B4: 2F12 (antibody, V domains shown)
VH: QVQLVQSGAEVKKPGASVKVSCKVSGYTVTDLSMHWVRQAPGKGLEWMGGFDPQDGETIYAQKFQGRVTMTEDTSTDTAYMELRSLRSEDTAVYYCTTESSSAWFDPWGQGTLVTVSS
VL: DIQMTQSPSSVFASVGDRVTITCRASQGISSWLAWYQQKPGKAPNLLIYGASSLQNGVPLRFSGSGSGTDFTLTISSLQPEDFATYYCQQANSFPWTFGQGTKVEIK
notes: Fully human monoclonal from XenoMouse (human IgG2 or IgG4); kappa light chain; also called 2F12K; 2F12H
In the case of B4, the binding result in experiment [1] and in experiment [2] was “binds” each time.

(Values after US20100254975A1 (Amgen, published 2010).)
